Source: the supplement of paper PMC10849652
Some of the results follow.

By UniProt entry, the sequences of proteins in these tests, tags left out. Where a name states a change or a piece, a line headed by the entry shows the natural chain unless it says otherwise.
UniProt Q9UJT0: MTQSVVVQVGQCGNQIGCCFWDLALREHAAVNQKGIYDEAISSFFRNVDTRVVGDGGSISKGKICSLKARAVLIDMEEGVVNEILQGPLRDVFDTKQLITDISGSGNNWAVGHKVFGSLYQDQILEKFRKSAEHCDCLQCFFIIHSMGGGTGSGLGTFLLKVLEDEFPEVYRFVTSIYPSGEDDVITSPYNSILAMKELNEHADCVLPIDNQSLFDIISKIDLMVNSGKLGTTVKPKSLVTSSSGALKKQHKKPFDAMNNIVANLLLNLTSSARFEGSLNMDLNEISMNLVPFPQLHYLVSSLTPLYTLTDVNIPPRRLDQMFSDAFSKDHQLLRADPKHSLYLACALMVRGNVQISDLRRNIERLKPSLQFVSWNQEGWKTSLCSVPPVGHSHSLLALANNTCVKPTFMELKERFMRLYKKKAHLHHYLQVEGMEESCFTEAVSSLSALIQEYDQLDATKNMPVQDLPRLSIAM
UniProt Q12792, whole entry, looked up: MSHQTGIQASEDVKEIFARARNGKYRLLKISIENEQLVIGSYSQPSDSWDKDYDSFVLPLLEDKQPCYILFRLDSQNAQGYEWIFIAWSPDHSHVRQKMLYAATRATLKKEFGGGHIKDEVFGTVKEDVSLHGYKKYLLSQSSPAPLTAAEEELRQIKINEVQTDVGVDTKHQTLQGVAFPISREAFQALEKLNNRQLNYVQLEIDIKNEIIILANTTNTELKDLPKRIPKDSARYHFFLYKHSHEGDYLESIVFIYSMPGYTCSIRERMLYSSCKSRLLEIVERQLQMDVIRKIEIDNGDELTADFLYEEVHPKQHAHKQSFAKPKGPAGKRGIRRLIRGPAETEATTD
UniProt Q9NV66: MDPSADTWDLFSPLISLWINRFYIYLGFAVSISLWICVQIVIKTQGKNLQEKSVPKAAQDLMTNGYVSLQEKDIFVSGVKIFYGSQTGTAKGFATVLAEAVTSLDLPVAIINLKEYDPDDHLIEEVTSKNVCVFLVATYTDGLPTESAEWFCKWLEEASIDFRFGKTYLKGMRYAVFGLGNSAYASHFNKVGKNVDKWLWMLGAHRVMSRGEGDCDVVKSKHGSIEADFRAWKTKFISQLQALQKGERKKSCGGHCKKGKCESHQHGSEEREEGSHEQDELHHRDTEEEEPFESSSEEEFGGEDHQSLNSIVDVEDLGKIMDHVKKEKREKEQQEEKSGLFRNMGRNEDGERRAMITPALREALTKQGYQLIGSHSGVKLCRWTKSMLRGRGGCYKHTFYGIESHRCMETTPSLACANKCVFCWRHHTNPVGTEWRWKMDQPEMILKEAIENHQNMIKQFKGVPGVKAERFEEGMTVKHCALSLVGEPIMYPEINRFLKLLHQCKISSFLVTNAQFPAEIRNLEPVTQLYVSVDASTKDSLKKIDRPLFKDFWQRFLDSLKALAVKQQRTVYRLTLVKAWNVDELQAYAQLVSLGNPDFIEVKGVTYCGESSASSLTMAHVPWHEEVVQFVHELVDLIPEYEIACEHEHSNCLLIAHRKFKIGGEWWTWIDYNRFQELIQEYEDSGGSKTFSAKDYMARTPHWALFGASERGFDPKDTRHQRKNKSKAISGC
UniProt P61081: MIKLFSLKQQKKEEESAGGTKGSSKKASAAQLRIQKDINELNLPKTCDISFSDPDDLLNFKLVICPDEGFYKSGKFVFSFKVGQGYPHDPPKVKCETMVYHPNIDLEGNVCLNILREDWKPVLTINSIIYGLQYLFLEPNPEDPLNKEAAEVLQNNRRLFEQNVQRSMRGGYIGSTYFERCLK
UniProt P49459, whole entry, looked up: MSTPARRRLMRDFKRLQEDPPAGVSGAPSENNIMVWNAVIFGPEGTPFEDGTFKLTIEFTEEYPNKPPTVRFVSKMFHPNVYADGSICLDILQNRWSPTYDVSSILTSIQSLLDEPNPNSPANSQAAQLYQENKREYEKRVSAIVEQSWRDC
UniProt Q9BZV1: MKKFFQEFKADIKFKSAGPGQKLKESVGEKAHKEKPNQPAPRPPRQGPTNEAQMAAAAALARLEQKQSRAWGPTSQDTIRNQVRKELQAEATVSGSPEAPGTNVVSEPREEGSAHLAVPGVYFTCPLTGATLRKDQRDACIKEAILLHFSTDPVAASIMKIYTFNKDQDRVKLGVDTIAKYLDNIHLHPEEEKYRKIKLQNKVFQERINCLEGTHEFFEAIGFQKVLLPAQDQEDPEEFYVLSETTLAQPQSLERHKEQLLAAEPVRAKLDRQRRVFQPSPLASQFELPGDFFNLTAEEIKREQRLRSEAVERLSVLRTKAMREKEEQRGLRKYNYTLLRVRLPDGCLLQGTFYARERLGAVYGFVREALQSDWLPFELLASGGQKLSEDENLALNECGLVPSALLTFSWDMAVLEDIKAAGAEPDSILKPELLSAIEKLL
UniProt Q5TAX3: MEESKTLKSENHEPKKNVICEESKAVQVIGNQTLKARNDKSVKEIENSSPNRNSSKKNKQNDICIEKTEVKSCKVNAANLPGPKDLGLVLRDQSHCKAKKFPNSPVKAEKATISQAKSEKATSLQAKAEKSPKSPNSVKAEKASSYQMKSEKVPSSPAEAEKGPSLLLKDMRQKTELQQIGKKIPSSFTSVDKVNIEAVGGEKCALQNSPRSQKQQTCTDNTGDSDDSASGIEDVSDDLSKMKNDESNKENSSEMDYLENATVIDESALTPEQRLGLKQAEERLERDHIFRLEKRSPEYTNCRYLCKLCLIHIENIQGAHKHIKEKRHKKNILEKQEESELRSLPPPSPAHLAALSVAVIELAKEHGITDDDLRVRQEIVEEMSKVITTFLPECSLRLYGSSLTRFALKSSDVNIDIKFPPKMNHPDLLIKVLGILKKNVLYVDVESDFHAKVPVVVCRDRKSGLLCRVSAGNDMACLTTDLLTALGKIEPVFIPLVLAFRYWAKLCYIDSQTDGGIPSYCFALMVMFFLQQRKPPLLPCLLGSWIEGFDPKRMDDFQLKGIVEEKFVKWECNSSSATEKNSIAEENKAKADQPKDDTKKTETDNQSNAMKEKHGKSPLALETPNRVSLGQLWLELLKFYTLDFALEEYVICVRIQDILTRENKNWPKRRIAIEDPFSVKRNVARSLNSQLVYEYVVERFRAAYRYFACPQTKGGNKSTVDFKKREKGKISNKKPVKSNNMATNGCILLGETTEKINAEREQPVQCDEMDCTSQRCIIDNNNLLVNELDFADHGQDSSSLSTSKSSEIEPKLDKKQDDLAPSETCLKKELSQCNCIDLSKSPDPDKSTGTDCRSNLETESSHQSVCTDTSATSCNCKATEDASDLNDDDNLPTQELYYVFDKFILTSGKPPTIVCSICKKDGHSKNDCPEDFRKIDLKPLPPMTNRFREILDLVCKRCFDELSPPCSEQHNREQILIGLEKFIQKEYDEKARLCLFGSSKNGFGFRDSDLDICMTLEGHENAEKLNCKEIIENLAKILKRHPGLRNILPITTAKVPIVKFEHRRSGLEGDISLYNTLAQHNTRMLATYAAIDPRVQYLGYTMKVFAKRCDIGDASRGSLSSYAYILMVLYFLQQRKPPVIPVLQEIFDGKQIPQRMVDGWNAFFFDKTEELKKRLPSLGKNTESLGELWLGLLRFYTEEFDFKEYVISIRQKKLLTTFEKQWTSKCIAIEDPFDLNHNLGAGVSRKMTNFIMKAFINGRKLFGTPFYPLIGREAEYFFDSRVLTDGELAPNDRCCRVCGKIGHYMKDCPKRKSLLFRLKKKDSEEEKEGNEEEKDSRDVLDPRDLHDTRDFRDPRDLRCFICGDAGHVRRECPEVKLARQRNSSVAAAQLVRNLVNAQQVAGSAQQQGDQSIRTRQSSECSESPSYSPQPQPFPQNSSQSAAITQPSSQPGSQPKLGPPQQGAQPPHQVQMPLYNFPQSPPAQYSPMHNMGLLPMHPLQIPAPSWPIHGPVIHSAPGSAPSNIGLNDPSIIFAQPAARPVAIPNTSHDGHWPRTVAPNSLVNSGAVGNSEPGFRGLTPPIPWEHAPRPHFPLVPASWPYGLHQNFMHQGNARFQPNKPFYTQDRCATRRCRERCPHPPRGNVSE
UniProt Q9UBT2: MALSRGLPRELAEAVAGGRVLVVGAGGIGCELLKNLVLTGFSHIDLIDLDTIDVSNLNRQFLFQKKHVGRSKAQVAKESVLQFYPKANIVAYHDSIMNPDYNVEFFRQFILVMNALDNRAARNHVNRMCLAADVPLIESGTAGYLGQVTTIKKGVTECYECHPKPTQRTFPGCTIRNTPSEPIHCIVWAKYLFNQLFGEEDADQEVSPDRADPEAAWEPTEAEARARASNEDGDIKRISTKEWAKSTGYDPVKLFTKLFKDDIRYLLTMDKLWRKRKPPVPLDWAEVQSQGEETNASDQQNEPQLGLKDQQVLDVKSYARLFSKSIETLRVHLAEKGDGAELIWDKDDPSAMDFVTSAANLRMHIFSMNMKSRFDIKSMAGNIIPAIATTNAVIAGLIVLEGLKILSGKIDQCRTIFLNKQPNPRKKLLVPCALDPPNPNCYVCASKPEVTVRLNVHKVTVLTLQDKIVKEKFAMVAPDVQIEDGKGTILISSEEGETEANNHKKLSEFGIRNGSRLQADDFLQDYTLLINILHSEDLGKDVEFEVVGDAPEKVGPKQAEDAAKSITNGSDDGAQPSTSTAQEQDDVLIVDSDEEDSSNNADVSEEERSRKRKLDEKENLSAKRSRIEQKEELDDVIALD
UniProt P63146, whole entry, looked up: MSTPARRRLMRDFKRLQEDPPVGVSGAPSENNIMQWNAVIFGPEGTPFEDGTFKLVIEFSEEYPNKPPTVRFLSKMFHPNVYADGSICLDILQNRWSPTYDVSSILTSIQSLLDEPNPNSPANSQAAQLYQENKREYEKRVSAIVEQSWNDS
UniProt O95881: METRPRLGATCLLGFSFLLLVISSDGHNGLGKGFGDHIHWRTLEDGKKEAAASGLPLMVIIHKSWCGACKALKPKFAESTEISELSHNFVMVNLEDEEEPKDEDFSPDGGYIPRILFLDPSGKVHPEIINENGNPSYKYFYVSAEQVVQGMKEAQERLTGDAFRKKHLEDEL
UniProt Q15386: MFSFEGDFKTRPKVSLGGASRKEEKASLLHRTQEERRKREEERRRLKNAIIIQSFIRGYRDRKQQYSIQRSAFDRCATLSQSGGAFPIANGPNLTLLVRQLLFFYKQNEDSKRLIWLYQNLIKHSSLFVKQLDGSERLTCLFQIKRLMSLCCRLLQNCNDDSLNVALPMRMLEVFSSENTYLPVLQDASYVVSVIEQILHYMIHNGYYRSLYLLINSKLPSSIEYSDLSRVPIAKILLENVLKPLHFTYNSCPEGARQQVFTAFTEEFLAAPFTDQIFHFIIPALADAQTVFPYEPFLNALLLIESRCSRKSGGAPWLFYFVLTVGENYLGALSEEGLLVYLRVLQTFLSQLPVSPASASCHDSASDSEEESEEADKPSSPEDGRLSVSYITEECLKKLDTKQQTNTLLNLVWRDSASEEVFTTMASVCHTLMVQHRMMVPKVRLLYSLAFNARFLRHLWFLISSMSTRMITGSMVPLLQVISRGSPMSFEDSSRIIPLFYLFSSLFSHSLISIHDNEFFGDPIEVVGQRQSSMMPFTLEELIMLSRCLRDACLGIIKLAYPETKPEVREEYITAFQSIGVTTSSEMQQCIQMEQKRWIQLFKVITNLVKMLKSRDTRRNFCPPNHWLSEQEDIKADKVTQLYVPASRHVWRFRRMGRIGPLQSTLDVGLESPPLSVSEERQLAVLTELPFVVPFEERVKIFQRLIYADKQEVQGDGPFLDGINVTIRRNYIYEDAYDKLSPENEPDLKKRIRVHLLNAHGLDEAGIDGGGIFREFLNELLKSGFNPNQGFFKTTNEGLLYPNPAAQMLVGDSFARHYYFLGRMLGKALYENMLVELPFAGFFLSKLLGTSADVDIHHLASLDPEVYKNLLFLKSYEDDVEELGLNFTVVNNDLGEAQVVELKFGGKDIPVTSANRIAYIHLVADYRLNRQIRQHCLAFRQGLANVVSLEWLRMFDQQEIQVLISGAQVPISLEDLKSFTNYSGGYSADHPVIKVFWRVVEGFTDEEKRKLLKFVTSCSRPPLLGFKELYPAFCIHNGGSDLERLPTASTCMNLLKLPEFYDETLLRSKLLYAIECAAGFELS
UniProt O14562: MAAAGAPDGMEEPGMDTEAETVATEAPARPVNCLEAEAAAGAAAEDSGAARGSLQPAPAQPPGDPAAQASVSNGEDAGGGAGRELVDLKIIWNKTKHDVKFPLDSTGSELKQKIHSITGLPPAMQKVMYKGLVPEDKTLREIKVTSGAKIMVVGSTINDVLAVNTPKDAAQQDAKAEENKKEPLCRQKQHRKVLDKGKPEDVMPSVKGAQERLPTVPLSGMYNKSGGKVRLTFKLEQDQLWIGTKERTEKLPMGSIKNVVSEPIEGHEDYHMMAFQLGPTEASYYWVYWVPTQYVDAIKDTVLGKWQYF
UniProt Q99757: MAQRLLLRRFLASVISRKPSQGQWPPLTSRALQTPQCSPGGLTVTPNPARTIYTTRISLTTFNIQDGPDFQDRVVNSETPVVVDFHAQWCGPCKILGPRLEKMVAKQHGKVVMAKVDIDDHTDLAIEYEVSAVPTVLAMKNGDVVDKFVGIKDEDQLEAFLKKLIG

Legend:
Assay in all cases: log2 fold change, soluble protein after heating vs DMSO (PISA); higher = thermal stabilisation; K562 lysate, 10 uM; active = over 0.2 and 3.5 SD of the protein, either way, in both replicates (recomputed)
[1] = compound: C=CC(=O)N1CCC[C@@H](n2nc(-c3ccc(Oc4ccccc4)cc3)c3c(N)ncnc32)C1 [ibrutinib]
Method in brief: (§1)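 Soluble protein was defined as the supernatant remaining after 21,000xg for 90 min, following pooling of heated aliquots and adjustment to 0.5% NP-40 at 4°C. Before that, crude K562 extract at 1 mg/mL protein in PBS pH 7.4 with 1 mM MgCl2 was treated with 10 μM compound for 30 min and heated for 3 min across 48°C-58°C. Quantification used TMTpro 16plex LC-MS/MS with channel sums equalised, and values are log-two fold changes in thermal stability relative to solvent controls from duplicates.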

[2] = compound: CC(=O)c1cnc2ccc(-c3cc(Cl)c(O)c(Cl)c3)nc2c1N[C@H]1CC[C@H](CN(C)C)CC1
Method in brief: as §1

[3] = compound: CC(C)(C)Cn1c(N)nc2ccc(-c3[nH]c(C(C)(C)C)nc3-c3ccc(F)cc3)nc21 [ralimetinib]
Method in brief: as §1

[4] = compound: CC(C)(O)CC(=O)NCCn1ccc2ncnc(Nc3ccc(Oc4cccc(C(F)(F)F)c4)c(Cl)c3)c21
Method in brief: as §1

[5] = compound: CC(C)C1=C2N=C(C=C(N2N=C1)NCC3=CC=CC=C3)NCCCCCCN
Method in brief: as §1

[6] = compound: CC1=C(C(CC(=O)N1)C2=CC=C(C=C2)C(F)(F)F)C(=O)NC3=C(C=C4C(=C3)C=NN4)F
Method in brief: as §1

[7] = compound: CC1=C(C2=C(C=C1)C(=O)C3=CC=CC=C3N2CCCN)C
Method in brief: as §1

[8] = compound: CC1=C(C=C(C=C1)NC(=O)C2=CC(=CC=C2)C(C)(C)C#N)NC3=CC4=C(C=C3)N=CN(C4=O)C
Method in brief: as §1

[9] = compound: CC1=C(C=C(C=C1)NC(=O)C2=CC(=CC=C2)N(C)C)NC(=O)C3=CC=C(C=C3)O
Method in brief: as §1

[10] = compound: CC1=CC=C(C=C1)SC2=C3C=C(SC3=CN=C2)C(=O)N
Method in brief: as §1

Measured: log2 fold change

TUBE1 (UniProt Q9UJT0)
inactive: [1] 0.065 | [2] -0.017 | [3] 0.05 | [4] -0.034 | [5] 0.024 | [6] -0.001 | [7] 0.027 | [8] -0.02 | [9] 0.001 | [10] -0.03

TWF1 (UniProt Q12792)
inactive: [1] 0.018 | [2] 0.003 | [3] 0.046 | [4] -0.061 | [5] -0.029 | [6] 0.033 | [7] -0.009 | [8] -0.023 | [9] -0.036 | [10] 0.004

TYW1 (UniProt Q9NV66)
inactive: [1] 0.177 | [2] 0.069 | [3] 0.045 | [4] 0.12 | [5] -0.025 | [6] -0.001 | [7] -0.087 | [8] -0.021 | [9] -0.121 | [10] -0.098

UBE3A (UniProt Q05086)
inactive: [1] 0.017 | [2] -0.008 | [3] 0.01 | [4] -0.031 | [5] -0.002 | [6] -0.014 | [7] -0.011 | [8] 0.011 | [9] 0.008 | [10] 0

UBE2O (UniProt Q9C0C9)
inactive: [1] -0.011 | [2] -0.01 | [3] -0.025 | [4] -0.061 | [5] 0.001 | [6] -0.021 | [7] -0.041 | [8] 0.03 | [9] 0.01 | [10] -0.01

UBE2M (UniProt P61081)
inactive: [1] 0.005 | [2] -0.016 | [3] -0.022 | [4] 0.017 | [5] -0.003 | [6] -0.035 | [7] -0.016 | [8] 0.055 | [9] -0.032 | [10] -0.009

TUBGCP6 (UniProt Q96RT7)
inactive: [1] 0.09 | [2] -0.006 | [3] -0.043 | [4] 0.065 | [5] 0.032 | [6] 0.015 | [7] -0.069 | [8] -0.2 | [9] 0.099 | [10] -0.11

TXNRD1 (UniProt Q16881)
inactive: [1] 0.015 | [2] -0.007 | [3] -0.002 | [4] -0.019 | [5] -0.013 | [6] -0.023 | [7] 0.005 | [8] 0.003 | [9] -0.019 | [10] -0.019

TUBGCP4 (UniProt Q9UGJ1)
inactive: [1] 0 | [2] -0.051 | [3] 0.052 | [4] -0.037 | [5] 0 | [6] 0.021 | [7] -0.048 | [8] -0.002 | [9] 0.05 | [10] 0.043

UBE2A (UniProt P49459)
inactive: [1] -0.006 | [2] 0.007 | [3] -0.015 | [4] 0.009 | [5] -0.026 | [6] -0.005 | [7] 0.023 | [8] 0.016 | [9] 0.024 | [10] -0.023

UBXN6 (UniProt Q9BZV1)
inactive: [1] 0.046 | [2] 0.174 | [3] 0.037 | [4] -0.012 | [5] 0.019 | [6] 0.121 | [7] -0.059 | [8] -0.038 | [9] 0.031 | [10] 0.041

TUBA1B (UniProt P68363)
inactive: [1] -0.012 | [2] 0.008 | [3] 0.025 | [4] 0.003 | [5] 0.021 | [6] -0.011 | [7] -0.003 | [8] 0.018 | [9] 0.022 | [10] 0.005

UBR2 isoform 4 (UniProt Q8IWV8)
inactive: [1] 0.05 | [2] -0.002 | [3] 0.029 | [4] -0.022 | [5] -0.004 | [6] 0.004 | [7] -0.016 | [8] 0.02 | [9] -0.039 | [10] -0.002

TUT4 (UniProt Q5TAX3)
inactive: [1] 0.024 | [2] -0.013 | [3] 0.006 | [4] -0.07 | [5] 0.023 | [6] -0.003 | [7] -0.045 | [8] -0.165 | [9] -0.007 | [10] 0.041

UBA2 (UniProt Q9UBT2)
inactive: [1] 0.012 | [2] -0.009 | [3] 0.007 | [4] -0.002 | [5] -0.008 | [6] -0.02 | [7] -0.002 | [8] -0.002 | [9] -0.019 | [10] 0.007

UBR5 (UniProt O95071)
inactive: [1] -0.001 | [2] -0.005 | [3] 0.01 | [4] -0.028 | [5] -0.005 | [6] 0.004 | [7] -0.011 | [8] 0.013 | [9] 0.016 | [10] 0.018

UBE2B (UniProt P63146)
inactive: [1] 0.013 | [2] 0.01 | [3] -0.006 | [4] 0.022 | [5] -0.031 | [6] -0.005 | [7] -0.024 | [8] -0.02 | [9] 0.031 | [10] 0.024

UBE2H (UniProt P62256)
inactive: [1] 0.032 | [2] 0.026 | [3] -0.033 | [4] -0.002 | [5] -0.004 | [6] 0.064 | [7] 0.022 | [8] 0.005 | [9] 0.026 | [10] -0.027

TXNDC9 (UniProt O14530)
inactive: [1] -0.03 | [2] 0.008 | [3] -0.006 | [4] -0.017 | [5] -0.018 | [6] -0.011 | [7] -0.036 | [8] -0.024 | [9] 0.029 | [10] 0.012

UBE2L6 (UniProt O14933)
inactive: [1] 0.152 | [2] 0.012 | [3] -0.002 | [4] -0.041 | [5] -0.009 | [6] -0.033 | [7] -0.014 | [8] -0.019 | [9] -0.007 | [10] 0.002

Two neighbouring records from above, for reference:
UBR5 (UniProt O95071)
inactive: [1] -0.001 | [2] -0.005 | [3] 0.01 | [4] -0.028 | [5] -0.005 | [6] 0.004 | [7] -0.011 | [8] 0.013 | [9] 0.016 | [10] 0.018

UBE2B (UniProt P63146)
inactive: [1] 0.013 | [2] 0.01 | [3] -0.006 | [4] 0.022 | [5] -0.031 | [6] -0.005 | [7] -0.024 | [8] -0.02 | [9] 0.031 | [10] 0.024

Remaining list, next part

TXNDC12 (UniProt O95881)
inactive: [1] 0.041 | [2] 0.043 | [3] 0.024 | [4] 0.021 | [5] -0.014 | [6] 0 | [7] 0.031 | [8] 0 | [9] -0.033 | [10] 0.036

UBE3C (UniProt Q15386)
inactive: [1] -0.011 | [2] 0.024 | [3] 0.012 | [4] -0.028 | [5] -0.011 | [6] 0.005 | [7] 0.04 | [8] -0.021 | [9] 0.021 | [10] 0.01

TUBG1 (UniProt P23258)
inactive: [1] -0.012 | [2] 0.013 | [3] -0.079 | [4] -0.066 | [5] 0.023 | [6] -0.024 | [7] -0.012 | [8] 0.003 | [9] 0 | [10] -0.015

UBQLN2 (UniProt Q9UHD9)
inactive: [1] 0.132 | [2] 0.001 | [3] -0.005 | [4] -0.052 | [5] 0.01 | [6] -0.014 | [7] -0.014 | [8] 0.035 | [9] 0.059 | [10] -0.017

UBFD1 (UniProt O14562)
inactive: [1] 0.014 | [2] 0.008 | [3] -0.004 | [4] -0.024 | [5] -0.003 | [6] -0.027 | [7] 0.012 | [8] 0.048 | [9] -0.03 | [10] -0.002

TXN2 (UniProt Q99757)
inactive: [1] -0.053 | [2] -0.053 | [3] -0.011 | [4] 0.008 | [5] 0.031 | [6] 0.003 | [7] 0.053 | [8] 0.024 | [9] -0.021 | [10] -0.026

UBE2E3 (UniProt Q969T4)
inactive: [1] -0.009 | [2] -0.021 | [3] -0.004 | [4] -0.01 | [5] 0.02 | [6] -0.026 | [7] -0.015 | [8] 0.034 | [9] 0.015 | [10] 0.042

UBL7 (UniProt Q96S82)
inactive: [1] 0.075 | [2] -0.016 | [3] 0.019 | [4] -0.011 | [5] -0.011 | [6] 0.012 | [7] 0.018 | [8] 0.051 | [9] 0.003 | [10] -0.01

UBE2R2 (UniProt Q712K3)
inactive: [1] -0.014 | [2] 0.029 | [3] 0.008 | [4] 0.011 | [5] 0.003 | [6] -0.054 | [7] 0.009 | [8] -0.015 | [9] 0.022 | [10] 0.051
